PubChem BioAssay AID1794845 (National Center for Advancing Translational Sciences (NCATS), 2023)
In all, about 6,900 compounds went through this assay and fewer than 10 were called active. Calls come from the whole dose curve; as a rule, active = well fitted curve in the direction sought with a large enough effect; inconclusive = small, poorly fitted or top-dose-only effect, or another doubt; inactive = no such curve, though single readings can be large or run the other way. Some of the results follow.

Sequences of proteins named here, by UniProt entry; tags and fusion partners are left off. A change or cut given only in a name is not applied to a line headed by its entry.
UniProt C7C422: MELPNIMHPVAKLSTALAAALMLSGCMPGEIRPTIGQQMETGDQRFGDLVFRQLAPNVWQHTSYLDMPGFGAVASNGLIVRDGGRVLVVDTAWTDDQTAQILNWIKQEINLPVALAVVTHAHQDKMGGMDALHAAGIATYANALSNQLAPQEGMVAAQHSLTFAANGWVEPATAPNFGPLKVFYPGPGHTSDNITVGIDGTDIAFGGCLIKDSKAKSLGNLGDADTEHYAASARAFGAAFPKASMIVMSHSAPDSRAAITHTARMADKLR

target: Metallo-beta-lactamase type 2 (Klebsiella pneumoniae) (UniProt C7C422); experiment: qHTS to identify inhibitors of the New Delhi Metallo-beta-lactamase (NDM): primary screen against the NCATS Gemini Collection; conditions: NDM-1 enzyme, meropenem hydrolysis, absorbance 300 nm; at 38.4 µM (top of the series) unless noted; note: % of control where 0% means no effect
Excerpt: Assay Submitter (PI): James Inglese Ph.D., Patricia Dranchak Ph.D., Mahesh Aitha Ph.D. Assay Development and Screening Technology Laboratory (ADST) National Center for Advancing Translational Sciences (NCATS), Rockville, MD National Institute of Health (NIH), Bethesda, Maryland The metallo-beta-lactamases (MBL) are a main antibiotic resistance mechanism evolved by bacteria. There is an urgent clinical need for MBL inhibitors to mitigate this growing threat. To support a machine-based learning study, qHTS has been used to experimentally test inhibitors identified by prediction tools.
PROTOCOL TABLE (as described by Inglese et al., 2007) SEQUENCE No. (e.g., 1, 2, 3, etc.); […] (e.g., enzyme, Incubation, Reagent, etc.); VALUE; DESCRIPTION 1; NDM-1; 4 uL of 3 nM enzyme [2 nM final] in 50 mM HEPES (pH 7.0), 1 uM […], 0.01% Tween20; Use BioRaptr to dispense into Aurora black, clear bottom low base 1536-well plates 2; Compounds; 23 nL; Use Pin Tool (Wako) to transfer DMSO control and library compounds in DMSO 3; Incubate; >30 min 4; Reagent; 2 uL of 150 uM meropenem [50 uM final] 5; Incubate; 30 min. 6; Detector; Absorbance at 300 nm (bandwidth = 5 nm, 25 flashes/well) on Tecan Infinity NOTES (numbers refer to sequence above) 1; Column 1 of each plate received assay buffer without enzyme and columns 2-48 received enzyme for a final assay concentration of 2 nM. 2; Control plate contained DMSO in columns 1, 2, 3, and 4. 3; Compound interaction with enzyme. 4; Meropenem substrate was prepared in the same assay buffer as step 1 for a final assay concentration of 50 uM and added to all wells across the assay plates. 5; Substrate interaction with enzyme, plateau phase of kinetics. 6; Default reader settings were applied for absorbance read at 300 nm, bandwidth = 5 nm, 25 flashes/well. References: Inglese J, Shamu CE, Guy RK. 2007. Reporting data from high-throughput screening of small-molecule libraries. Nat Chem Biol. doi:10.1038/nchembio0807-438 Yasgar A, Shinn P, Jadhav A, Auld D, Michael S, Zheng W, Austin CP, Inglese J, Simeonov A. 2008. Compound Management for Quantitative High-Throughput Screening. J Lab Autom 13:79 - 89. doi:10.1016/j.jala.2007.12.004

Activity % (negative = inhibition), inactive:
COCc1cn(C[C@H]2C[C@@H](NC(=O)c3ccc(C#N)cc3)[C@H](O)[C@@H]2O)nn1 10.9% [at 57.5 µM], O=C1CCN(Cc2cccc(F)c2)CCCOCCN1 2.17%, O=C(C[C@@H]1CCNC[C@@H]1Cc1cc(COc2ccccc2)on1)Nc1ccccc1 -9.48% [at 57.5 µM], Cc1ccc(CC(=O)N2CCN(c3cc(C(F)(F)F)ncn3)CC2)cc1 4.12%, COCCCNC(=O)C1CCCN1Cc1cccc(-c2ccc(C)c(Cl)c2)c1 (stereo not drawn) 7.62%, O=C([C@@H]1C[C@H](F)CN1C(=O)Cc1ccccc1F)N1CCCCC1 4.88%, COc1cc(CN2CCN(Cc3ccc(-n4cccn4)cc3C)CC2CCO)cc(OC)c1 (stereo not drawn) 0.369%, O=C(c1ccccc1OCC1CCCN(Cc2nccs2)C1)N1CCCC1 (stereo not drawn) -1.5%, CCc1nc2c(c(-c3ccc(O)cc3)n1)CCN(Cc1ccc(F)cc1)CC2 2.26%, COCCN1C(=O)CCC2(C(=O)N3CCN(c4ccccn4)CC3)CCCC=C12 (stereo not drawn) 0.137%, O=C(O)C[C@@H]1CCN(C(=O)c2ccc(C(F)(F)F)cc2)C[C@@H]1CCN1CCN(c2ccccn2)CC1 -0.741%, CCOc1ccc(-c2cccc3c2CCNC3)cc1C(N)=O 1.79%, CC[S+](=O)([O-])N1C[C@@H](CO)[C@@H]2Oc3c(F)cccc3[C@@H]21 7.08%, CC1CCN(C(=O)C[C@@H]2c3nc(NC(=O)CC(C)(C)C)sc3C[C@@H]3[C@](C)(CO)[C@H](O)CC[C@]32C)CC1 5.2%, COc1ccc(-c2nc3ccncc3[nH]2)cc1 48% [at 77.1 µM], Cc1nc(C2(C)CCN(C(=O)CCCC(=O)n3nc(C)c4ccccc43)CC2)no1 17.2%, COCCNC(=O)c1cc(-c2ccccc2OC)c2cccn2n1 -0.624% [at 57.5 µM], CN(Cc1ccccc1C(F)(F)F)S(=O)(=O)c1cccc(C(F)(F)F)c1 2.58%, O=C([C@@H]1C[C@H](F)CN1C(=O)NCc1ccc(OC(F)(F)F)cc1)N1CCCCC1 -6.66%, CCN(CC)C(=O)C[C@@H]1c2nc(NC(=O)N3CCOCC3)sc2C[C@@H]2[C@](C)(CO)[C@H](O)CC[C@]21C 7.1%, COCC(=O)N1CCN(C(=O)CSCC(=O)O)C[C@H]1C(=O)N[C@H]1CCCNC1=O 14% [at 57.5 µM], COC1CCOC2(CCN(S(=O)(=O)c3c(C)noc3C)CC2)C1 (stereo not drawn) -6.37%, Cc1cccc(-c2nc(Cn3c(-c4ccc(F)cc4)nc(C)c(CCO)c3=O)c(C)o2)c1 -3.03%, Cn1nccc1C(=O)N1CCC(Cc2nc(C3CC3)n[nH]2)C1 (stereo not drawn) 15.5%, Cc1ccc(C(=O)N2CC(Oc3ccc(F)c(C)c3)C2)cc1 -2.66% [at 57.5 µM], O=C(NC1C[C@H]2CC[C@@H](C1)N2S(=O)(=O)c1cccs1)c1ccncc1 (stereo partly drawn) 0.389%, CC(C)NC(=O)CCc1cc2n(n1)CCN(C(=O)[C@H]1CCCO1)C2 3.26%, C=CCNC(=O)c1cn2c(n1)CN(C(C)=O)CC2 8.68% [at 77.1 µM], Cc1cc(N2CCC3(CCCN(C)C3=O)C2)c2ccccc2n1 (stereo not drawn) 4.05%, O=C1CN(Cc2ccc(-c3ccccc3)cc2)CCN1c1ccc(Cl)nn1 6.11%, O=C(NCc1nnc2n1CCCC2)[C@H]1CNC[C@H](C(=O)N2CCOCC2)C1 -5.13%, Cc1cccc(NC(=O)N2CCn3nnc(CCC(=O)NC4CC4)c3C2)c1 -3.18%, COc1ccccc1-c1nc2nccc(-c3cccnc3)n2n1 31.2%, CN(C)CC1(O)CCC2(CCN(C(=O)c3nccc4ccccc34)CC2)CC1 -4.02%, NCc1ccc(Oc2ncnc3ccccc23)cc1 55.8% [at 57.5 µM], CC(=O)NCC(=O)NC1CC(C)(C)Cc2nc(N(C)Cc3ccccc3)ncc21 (stereo not drawn) -0.335%, O=C1COC[C@H]([C@H](O)c2ccc(NC(=O)C3CCCC3)cc2)N1 -0.711% [at 57.5 µM], CC1(c2noc(C3CC3)n2)CCN(C(=O)CCc2nc3ccc(Cl)cc3[nH]2)CC1 3.59%, CCn1nc(CC(C)C)cc1C(=O)N1CCN(S(=O)(=O)CC)CC1 8.03%, CCOc1ccc(C(=O)N2CCCC3(C2)NC(=O)N(Cc2cc(C)ccc2C)C3=O)cc1 (stereo not drawn) 0.0119%, CC(C)CNC(=O)N1CCC(Nc2cccnc2)C1 (stereo not drawn) 13.3%, COc1ccccc1C(=O)N1CC(Oc2ccc(-c3noc(-c4ccncc4)n3)cc2)C1 -0.932%, Cc1ccc(C(C(=O)NCc2ccc(O)cc2)N(C)C)cc1 (stereo not drawn) 0.0099%, COc1ccc2[nH]c(C(=O)N3CCCCCNC(=O)[C@@H]4CCC[C@@H]43)cc2c1 35.9%, Cc1c(CNC(=O)c2ccccc2C2CCNC2)oc2ccccc12 (stereo not drawn) 5.89%, CNC(=O)Cn1nc(C2CCN(C(=O)c3ccccc3F)CC2)c2c1CCOC2 24.9%, Cc1ccc(CN2CCOCCNC(=O)[C@H]3CCCC[C@H]32)o1 0.112%, CN(CC(=O)N[C@H]1CCOC[C@H]1C1CCOCC1)Cc1ccncc1 7.29%, Fc1ccc(Nc2nc(-c3ccccc3F)no2)cc1 2.76%, COc1ccc(-c2cc(N3CCCN(C(=O)CCCc4ccccc4)CC3)n[nH]2)cc1 3.03%, CC(C)CN1C(=O)COC[C@@H]1[C@H](O)c1ccc(NC(=O)c2ccc3c(c2)OCO3)cc1 53.8% [at 57.5 µM], O=C1CC(c2ccccc2)N(C(=O)CNC(=O)c2ccncc2)CCCCCN1 (stereo not drawn) -3.75%, COc1cccc(-c2ccc(NC(=O)C3CCCN3C(=O)CNC(C)=O)cc2)c1 (stereo not drawn) 0.221%, CN(Cc1cccc(C(F)(F)F)c1)C(=O)CC1CCCC1 -5.9% [at 57.5 µM], O[C@]12CCNC[C@H]1CN(Cc1cccc(N3CCOCC3)c1)CC2 29.4%, O=C(NC[C@H]1O[C@@H](CC(=O)N2CCc3ccccc32)[C@H](O)[C@@H]1O)C1CC1 -1.9% [at 57.5 µM], O[C@@H]1CN(CC2CC2)CC[C@H]1N1CCN(c2ccccc2F)CC1 3.65%, CC(C)Cc1nc(NC(=O)C[C@H]2NC(=O)c3ccccc3NC2=O)n[nH]1 -0.13%, O=C(N[C@H]1C[C@@H]2OCC[C@H]12)c1cccc(-n2cnnc2)n1 -0.0441%, Cc1ccc(CNC2CN(C(=O)OC(C)(C)C)C2)nc1 -1.02% [at 57.5 µM], Cn1ccnc1C(=O)N1CCCCCNC(=O)[C@H]2C[C@H](C(=O)N3CCc4ccccc4C3)C[C@H]21 2.11%, O=C(c1c2c(nc3ccccc13)CCCC2)N1CCCC(c2nc(C3CCOCC3)no2)C1 (stereo not drawn) 8.67%, O=C(NCCCc1ccccc1)C1CCN(c2cc(C(F)(F)F)ncn2)CC1 18.3%, COc1ccc(CNC(=O)O[C@H]2COCCN(c3nc4ccccc4o3)C2)cc1 1.02% [at 57.5 µM], O=C(c1ccc(F)cc1)N1CCN(c2nc3ncccc3o2)CC1 9.92% [at 57.5 µM], OCC1(O)CCCN(Cc2cnc(NCc3ccccc3)nc2)C1 (stereo not drawn) -0.644%, COCc1nc(C2CC(N)C2)cc(N(C)Cc2noc3c2CCCC3)n1 (stereo not drawn) 15.4%, O=C(Nc1ccc(F)cc1)c1ccnc2[nH]ccc12 21% [at 77.1 µM], O=S(=O)(c1ccccc1)N1CCC(CCOc2ccccc2)C1 (stereo not drawn) -1.27%, O=C(C1CCCN([S+](=O)([O-])c2cccs2)C1)N1CCC(N2CCCC2=O)CC1 (stereo not drawn) 6.91%, O=C(c1ccc(OC2CCN(C(=O)C3CCCC3)CC2)nc1)N1CCOCC1 -0.685%, CN1Cc2nc(OCc3ccc(F)cc3)ccc2OCC1=O 2.85% [at 57.5 µM], O=C1CO[C@H]2CCN(CCCc3ccccc3)CC[C@@H]2N1c1ccccc1 3% [at 57.5 µM], CC(=O)N1CCN(c2nc3c(s2)CC(C(=O)NCc2ccc(C(C)C)cc2)CC3)CC1 (stereo not drawn) -0.544%, COc1nc2c(cc1CNC(=O)c1cccnc1C)C(=O)N(C1CCCC1)C2 4.73%, CC(C)CCN1C[C@@H]2C[C@H]1C(=O)N(Cc1cccnc1)c1ccccc1O2 5.19% [at 57.5 µM], C[S+](=O)([O-])N1Cc2ccccc2OC2(CCN(C(=O)c3cccc4[nH]ccc34)CC2)C1 10.3%, COCCN1C(=O)c2ccccc2C(C(=O)Nc2nnc(C)s2)C12CCCCC2 (stereo not drawn) -0.924%, COc1cccc(Nc2ncc3c(n2)C(C)(C(=O)N2CCN(c4ccccn4)CC2)CC3)c1 (stereo not drawn) 4.25%, Cc1ccc(C(=O)N2CCC3(CC2)CC(N2CCN(CC(C)C)CC2)CCO3)cn1 (stereo not drawn) 0.181%, Cn1ncc(N2CCCC(C(=O)NCCCc3ccccc3)C2)cc1=O (stereo not drawn) 2.42%, O=C(C[C@@H]1O[C@H](CNC(=O)C2CC2)[C@@H](O)[C@H]1O)Nc1ccccc1 -0.242% [at 57.5 µM], CCn1cc(S(=O)(=O)N2CC(N(C3CCOCC3)S(C)(=O)=O)C2)cn1 -0.782%
